# Reference: US12258408B2, “Oncolytic virus expressing PD-1 binding protein and application of oncolytic virus” (SHANGHAI YUANSONG BIOTECHNOLOGY CO. LTD., priority 2018, dated 2025)
# Some results were stated once for a whole list of compounds, not compound by compound.
# Test system: HCC827 (human non-small cell lung cancer cell) xenograft tumor
# Type: in vivo, nude mice
# Conditions: given as 'up to'; virus intratumoral, 1.5×10^10 vp every other day, 4 injections; vs PBS (FIG. 7)
compound,measurement,value
Nc1ccn([C@@H]2O[C@H](CO)[C@@H](O)C2(F)F)c(=O)n1 [gemcitabine],tumor inhibition rate,< 84.2%
